# Test results: article doi:10.64898/2025.12.02.691793
# By UniProt entry, the sequences of proteins in these tests, tags left out. Where a name states a change or a piece, a line headed by the entry shows the natural chain unless it says otherwise.
# UniProt P0C0S5: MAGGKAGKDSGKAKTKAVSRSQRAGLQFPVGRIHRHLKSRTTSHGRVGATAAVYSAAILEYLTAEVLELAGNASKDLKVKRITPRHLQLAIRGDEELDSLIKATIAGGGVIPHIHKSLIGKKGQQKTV
# UniProt Q9Y4A5: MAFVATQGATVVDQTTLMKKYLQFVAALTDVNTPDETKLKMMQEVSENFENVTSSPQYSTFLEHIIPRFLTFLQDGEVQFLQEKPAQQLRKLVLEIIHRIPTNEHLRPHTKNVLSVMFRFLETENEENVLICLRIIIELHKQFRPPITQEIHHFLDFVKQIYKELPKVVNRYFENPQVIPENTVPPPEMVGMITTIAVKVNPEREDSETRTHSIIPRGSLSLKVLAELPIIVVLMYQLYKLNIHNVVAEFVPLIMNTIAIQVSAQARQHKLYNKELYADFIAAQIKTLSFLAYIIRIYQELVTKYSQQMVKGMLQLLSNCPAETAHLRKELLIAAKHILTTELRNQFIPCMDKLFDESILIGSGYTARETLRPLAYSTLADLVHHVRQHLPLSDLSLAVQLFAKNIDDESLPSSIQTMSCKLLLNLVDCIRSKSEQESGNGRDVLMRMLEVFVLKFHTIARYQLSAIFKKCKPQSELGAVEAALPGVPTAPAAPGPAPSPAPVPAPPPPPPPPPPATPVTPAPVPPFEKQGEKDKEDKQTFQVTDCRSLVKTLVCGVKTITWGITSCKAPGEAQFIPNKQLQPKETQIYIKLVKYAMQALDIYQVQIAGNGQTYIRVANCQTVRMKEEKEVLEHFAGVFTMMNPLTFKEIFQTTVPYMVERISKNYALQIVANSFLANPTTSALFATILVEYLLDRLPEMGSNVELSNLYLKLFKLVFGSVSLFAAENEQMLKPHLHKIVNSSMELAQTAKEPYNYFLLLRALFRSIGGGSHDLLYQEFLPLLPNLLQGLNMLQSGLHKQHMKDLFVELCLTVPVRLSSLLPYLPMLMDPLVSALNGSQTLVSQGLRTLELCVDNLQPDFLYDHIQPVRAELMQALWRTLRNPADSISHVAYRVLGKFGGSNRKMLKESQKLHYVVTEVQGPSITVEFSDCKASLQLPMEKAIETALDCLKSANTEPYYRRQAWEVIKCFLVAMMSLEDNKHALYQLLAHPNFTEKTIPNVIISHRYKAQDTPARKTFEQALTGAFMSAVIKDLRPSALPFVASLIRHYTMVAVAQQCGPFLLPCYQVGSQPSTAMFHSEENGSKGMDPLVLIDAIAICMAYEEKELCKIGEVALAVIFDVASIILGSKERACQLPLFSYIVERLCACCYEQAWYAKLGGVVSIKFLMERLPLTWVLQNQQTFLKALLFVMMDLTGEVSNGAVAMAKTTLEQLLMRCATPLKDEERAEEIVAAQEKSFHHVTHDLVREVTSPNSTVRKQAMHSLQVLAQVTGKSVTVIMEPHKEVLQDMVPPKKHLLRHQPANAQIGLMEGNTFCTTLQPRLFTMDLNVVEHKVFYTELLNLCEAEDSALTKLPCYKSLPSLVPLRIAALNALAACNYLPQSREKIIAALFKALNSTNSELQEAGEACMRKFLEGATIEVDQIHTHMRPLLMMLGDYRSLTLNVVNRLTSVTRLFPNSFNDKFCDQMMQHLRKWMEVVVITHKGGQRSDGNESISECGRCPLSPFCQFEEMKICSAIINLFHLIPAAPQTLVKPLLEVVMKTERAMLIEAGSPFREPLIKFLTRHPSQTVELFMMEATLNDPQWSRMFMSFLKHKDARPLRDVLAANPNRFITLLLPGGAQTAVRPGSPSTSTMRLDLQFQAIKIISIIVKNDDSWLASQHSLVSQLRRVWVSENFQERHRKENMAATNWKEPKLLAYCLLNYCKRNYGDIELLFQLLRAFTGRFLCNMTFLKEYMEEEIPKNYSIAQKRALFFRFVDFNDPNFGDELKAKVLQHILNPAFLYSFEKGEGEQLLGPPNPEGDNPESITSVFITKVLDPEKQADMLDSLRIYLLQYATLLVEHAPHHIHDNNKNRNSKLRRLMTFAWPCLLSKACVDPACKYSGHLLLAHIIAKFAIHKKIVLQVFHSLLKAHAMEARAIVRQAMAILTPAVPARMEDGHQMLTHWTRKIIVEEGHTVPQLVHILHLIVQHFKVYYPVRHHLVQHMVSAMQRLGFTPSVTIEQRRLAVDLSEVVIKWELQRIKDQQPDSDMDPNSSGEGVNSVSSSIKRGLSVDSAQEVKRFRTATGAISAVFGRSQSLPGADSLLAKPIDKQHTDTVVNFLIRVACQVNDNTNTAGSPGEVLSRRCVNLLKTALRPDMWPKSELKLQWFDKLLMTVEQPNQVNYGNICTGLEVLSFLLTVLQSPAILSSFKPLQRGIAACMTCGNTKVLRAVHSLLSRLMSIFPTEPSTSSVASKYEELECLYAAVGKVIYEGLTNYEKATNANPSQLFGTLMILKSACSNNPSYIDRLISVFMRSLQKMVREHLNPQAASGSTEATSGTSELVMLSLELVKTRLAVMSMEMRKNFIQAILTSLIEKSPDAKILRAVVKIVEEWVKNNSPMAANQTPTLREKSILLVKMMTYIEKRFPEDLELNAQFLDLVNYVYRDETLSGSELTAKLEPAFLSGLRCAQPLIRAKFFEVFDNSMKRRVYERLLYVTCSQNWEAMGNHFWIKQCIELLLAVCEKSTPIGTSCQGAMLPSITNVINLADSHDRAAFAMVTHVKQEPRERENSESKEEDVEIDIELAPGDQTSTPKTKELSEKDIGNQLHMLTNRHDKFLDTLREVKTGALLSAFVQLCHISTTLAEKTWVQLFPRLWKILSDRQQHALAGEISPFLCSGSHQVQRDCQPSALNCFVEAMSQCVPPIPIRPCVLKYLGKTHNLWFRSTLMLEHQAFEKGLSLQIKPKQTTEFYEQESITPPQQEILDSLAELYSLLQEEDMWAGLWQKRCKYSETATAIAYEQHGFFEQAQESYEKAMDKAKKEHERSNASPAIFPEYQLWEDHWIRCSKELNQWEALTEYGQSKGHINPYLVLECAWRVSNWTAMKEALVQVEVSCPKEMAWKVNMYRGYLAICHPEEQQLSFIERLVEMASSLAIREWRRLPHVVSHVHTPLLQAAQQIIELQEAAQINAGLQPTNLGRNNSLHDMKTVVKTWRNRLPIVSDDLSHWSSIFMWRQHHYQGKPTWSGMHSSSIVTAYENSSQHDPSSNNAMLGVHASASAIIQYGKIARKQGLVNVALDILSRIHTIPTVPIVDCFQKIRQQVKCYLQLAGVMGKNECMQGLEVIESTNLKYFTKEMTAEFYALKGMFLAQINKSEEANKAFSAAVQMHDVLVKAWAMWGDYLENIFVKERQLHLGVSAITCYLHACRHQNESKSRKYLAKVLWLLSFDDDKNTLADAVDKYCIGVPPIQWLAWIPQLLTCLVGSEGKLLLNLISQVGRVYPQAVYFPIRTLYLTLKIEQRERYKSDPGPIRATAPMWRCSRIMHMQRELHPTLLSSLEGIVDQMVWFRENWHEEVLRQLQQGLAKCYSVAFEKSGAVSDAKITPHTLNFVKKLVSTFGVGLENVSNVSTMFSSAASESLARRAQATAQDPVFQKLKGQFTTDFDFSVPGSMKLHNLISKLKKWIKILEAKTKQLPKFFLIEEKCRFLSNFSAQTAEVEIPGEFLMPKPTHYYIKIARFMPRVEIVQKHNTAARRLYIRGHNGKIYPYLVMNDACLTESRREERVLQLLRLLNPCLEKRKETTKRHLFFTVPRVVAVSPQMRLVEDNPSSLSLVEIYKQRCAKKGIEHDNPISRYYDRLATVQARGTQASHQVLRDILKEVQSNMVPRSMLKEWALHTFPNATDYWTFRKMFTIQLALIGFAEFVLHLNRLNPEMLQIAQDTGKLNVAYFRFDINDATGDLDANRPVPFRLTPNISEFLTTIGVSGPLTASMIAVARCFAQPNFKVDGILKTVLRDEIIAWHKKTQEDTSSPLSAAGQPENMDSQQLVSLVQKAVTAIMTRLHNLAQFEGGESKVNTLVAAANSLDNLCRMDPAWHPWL
# These are yes or no findings as the source states them, for the method shown. Binding seen in cells or lysates may run through a third protein. Some results given as binding are weak or reduced against the parent protein; the word gives no strength.
# Columns and labels:
# [1] = target: T1, Transcriptional Intermediary Factor 1γ (TIF1γ) (human (endogenous in HSC-3 and HSC-4)) (UniProt Q9UPN9); test: co-IP
# T1 sequence: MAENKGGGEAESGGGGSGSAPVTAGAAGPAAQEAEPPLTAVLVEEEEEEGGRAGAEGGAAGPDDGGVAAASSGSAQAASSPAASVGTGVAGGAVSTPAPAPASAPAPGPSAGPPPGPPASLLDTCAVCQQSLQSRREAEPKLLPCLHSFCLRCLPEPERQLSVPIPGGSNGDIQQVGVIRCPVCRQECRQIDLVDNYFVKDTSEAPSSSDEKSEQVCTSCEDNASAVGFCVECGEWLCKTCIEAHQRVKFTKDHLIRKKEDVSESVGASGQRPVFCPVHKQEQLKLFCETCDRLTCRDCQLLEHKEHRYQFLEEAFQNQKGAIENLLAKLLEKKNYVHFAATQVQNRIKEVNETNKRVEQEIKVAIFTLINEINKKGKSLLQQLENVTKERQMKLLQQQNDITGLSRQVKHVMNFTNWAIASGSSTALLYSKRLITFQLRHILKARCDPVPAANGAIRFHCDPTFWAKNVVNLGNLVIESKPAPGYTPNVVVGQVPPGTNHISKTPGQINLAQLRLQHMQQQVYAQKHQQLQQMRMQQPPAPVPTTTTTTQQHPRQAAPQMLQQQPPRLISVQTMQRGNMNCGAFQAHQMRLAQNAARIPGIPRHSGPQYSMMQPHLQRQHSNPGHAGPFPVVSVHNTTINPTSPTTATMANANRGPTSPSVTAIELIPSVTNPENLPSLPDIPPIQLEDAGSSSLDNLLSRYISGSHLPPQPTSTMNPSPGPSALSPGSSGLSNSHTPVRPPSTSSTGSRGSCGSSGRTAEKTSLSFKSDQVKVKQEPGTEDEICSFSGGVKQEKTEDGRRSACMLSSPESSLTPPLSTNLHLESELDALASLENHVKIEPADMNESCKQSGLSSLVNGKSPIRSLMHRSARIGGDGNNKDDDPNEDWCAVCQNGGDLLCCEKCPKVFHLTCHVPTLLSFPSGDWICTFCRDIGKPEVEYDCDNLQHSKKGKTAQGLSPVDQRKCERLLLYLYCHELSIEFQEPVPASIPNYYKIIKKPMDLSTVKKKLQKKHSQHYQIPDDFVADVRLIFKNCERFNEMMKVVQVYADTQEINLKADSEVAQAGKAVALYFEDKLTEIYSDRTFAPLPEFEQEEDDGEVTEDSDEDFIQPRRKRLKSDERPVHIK
# [2] = target: T1, Transcriptional Intermediary Factor 1γ (TIF1γ) (human (endogenous in HSC-3 and HSC-4)); test: FRET or BRET
binding [1],binding [2],Substance
binds,binds,H2A.Z (from UniProt P0C0S5 1-128)
binds,binds,TRRAP (from UniProt Q9Y4A5 1-3859)
binds,–,acetylated H2A.Z (from UniProt P0C0S5 1-128)
